Test results taken from US20240374487A1, “ANTI-AGING AGENT, COSMETIC PRODUCT, WET TOWEL, AND HYGIENE PRODUCT” (VB JAPAN TECHNOLOGY CO., LTD., priority 2021, published 2024).
Some results were stated once for a whole list of compounds, not compound by compound.

Test system: normal human dermal fibroblasts
Test: Cell viability under hydrogen peroxide oxidative stress (Cell counting-8 kit)
Assay type: cell-based
Conditions: 0.2 mM hydrogen peroxide, before vs after addition
Protocol: Normal human dermal fibroblasts (NHDF), juvenile foreskin (C-12300, PromoCell) were cultured in a dedicated medium, Fibroblast Growth Medium (C-23010, PromoCell) at 37° C. in a 5% CO2 incubator.
Normal human dermal fibroblasts were cultured for 2 hours in a culture solution to which 0.2 mM hydrogen peroxide was added, then washed off with PBS, and replaced with a normal medium to continue the cultivation. VB2 and VB3 were each added at any timing before or after hydrogen peroxide was added, and co-cultured for 4 hours. Thereafter, the cells or the culture solution were recovered.
In FIG. 5 which is a graph showing the results, a sample obtained by adding VB2 or VB3 after adding hydrogen peroxide was denoted as “H2O2-VB2” and “H2O2-VB3”, respectively, and a sample obtained by adding hydrogen peroxide after adding VB2 or VB3 was denoted as “VB2-H2O2” and “VB3-H2O2”, respectively.
Here, VB2 and VB3 were added at concentrations of 1 μg/mL, 10 μg/mL, 100 μg/mL, and 300 μg/mL, respectively.
The normal human dermal fibroblasts to which neither hydrogen peroxide nor VB2 nor VB3 was added were treated in the same manner as described above, and measured as Control. […]
The number of surviving cells in normal human dermal fibroblasts was measured using Cell counting −8 kit (DOJINDO: , Japan).

| Substance | concentration at which viability with addition before oxidative stress differed significantly from addition after [µg/mL] |
| --- | --- |
| K11H[(VO)3(SbW9O33)2] [VB2] | ≥ 10 |
| Na9[SbW9O33] [VB3] | ≥ 10 |
